Measured values as given in patent publication US8313669B2, “Liquid-crystal display” (Merck Patent Gesellschaft mit Beschränkter Haftung, priority 2007, dated 2012).

Assay: Tilt angle in VA-e/o test cells with LC host mixture N1 before and after UV polymerisation (rotational crystal experiment)
Procedure: The tilt angle is determined by a rotational crystal experiment (Autronic-Melchers TBA-105). A small value (i.e. a large deviation from a 90° angle) corresponds to a large tilt here.
0.3% of a polymerisable monomeric compound from Examples 1 to 10 is added to LC mixture N1, and the resultant mixtures are introduced into VA-e/o test cells (rubbed at 90°, alignment layer VA-polyimide, layer thickness d≈4 μm). Each cell is irradiated for 20 minutes with UV light having an intensity of 28 mW/cm^2 with application of a voltage of 10 V (alternating current), causing polymerisation of the monomeric compound. In a second series of experiments, 0.006% of the photoinitiator Irgacure 651 is additionally added to the LC/monomer mixture, and the exposure time is shortened to 2 minutes. Before and after the UV irradiation, the tilt angle is determined by a rotational crystal experiment (Autronic-Melchers TBA-105).
For comparative purposes, the experiments described above are carried out with the structurally analogous polymerisable compounds (A) and (B) known from the prior art (for example EP 1 498 468 A1), in which the polymerisable groups are linked in the para-position to the mesogenic group.

[1] = 0.3% monomer in LC mixture N1, no initiator, 20 minutes UV 28 mW/cm^2, 10 V alternating current
[2] = 0.3% monomer in LC mixture N1, no initiator, before UV irradiation
[3] = 0.3% monomer in LC mixture N1, with 0.006% photoinitiator Irgacure 651, 2 minutes UV 28 mW/cm^2, 10 V alternating current
[4] = 0.3% monomer in LC mixture N1, with 0.006% photoinitiator Irgacure 651, before UV irradiation

Row | Structure (SMILES) | Tilt after UV [1] | Tilt before UV [2] | Tilt after UV [3] | Tilt before UV [4]
1 | C=C(C)C(=O)Oc1cccc(-c2cccc(OC(=O)C(=C)C)c2)c1 [(1), 3′-(2-Methylacryloyloxy)biphenyl-3-yl 2-methylacrylate] | 87.9° | 89.9° | 87.4° | 89.9°
2 | C=CC(=O)Oc1cccc(-c2cccc(OC(=O)C=C)c2)c1 [(2), 3′-Acryloyloxybiphenyl-3-yl acrylate] | 87.2° | 89.9° | 87.0° | 89.9°
3 | C=C(C)C(=O)OCCCOc1cccc(-c2cccc(OC(=O)C(=C)C)c2)c1 [(3), 3′-[3-(2-Methylacryloyloxy)propoxy]biphenyl-3-yl 2-methylacrylate] | 87.4° | 89.8° | 87.5° | 89.9°
4 | C=C(C)C(=O)OCCCc1cccc(-c2cccc(OC(=O)C(=C)C)c2)c1 [(4), 3′-[3-(2-Methylacryloyloxy)propyl]biphenyl-3-yl 2-methylacrylate] | 83.5° | 89.8° | 84.7° | 89.7°
5 | C=C(C)C(=O)Oc1ccc(-c2cc(OC(=O)C(=C)C)cc(OC(=O)C(=C)C)c2)cc1 [(5), 3′,5′-Bis(2-methylacryloyloxy)biphenyl-4-yl 2-methylacrylate] | 86.3° | 89.9° | 84.2° | 89.9°
6 | C=CC(=O)Oc1ccc(-c2cc(OC(=O)C=C)cc(OC(=O)C=C)c2)cc1 [(6), 3′,5′-Bis(acryloyloxy)biphenyl-4-yl acrylate] | 85.2° | 89.9° | 80.0° | 89.9°
7 | C=C(C)C(=O)OCCc1ccc(-c2cc(OC(=O)C(=C)C)cc(OC(=O)C(=C)C)c2)cc1 [(7), 5-(2-Methylacryloyloxy)-4′-[2-(2-methylacryloyloxy)ethyl]biphenyl-3-yl 2-methylacrylate] | 86.8° | 89.9° | 86.8° | 89.8°
8 | C=C(C)C(=O)OCCCCc1cc(-c2cccc(OC(=O)C(=C)C)c2)ccc1OC(=O)C(=C)C [(8), 3′-(2-Methylacryloyloxy)-3-[4-(2-methylacryloyloxy)butyl]biphenyl-4-yl 2-methylacrylate] | 83.4° | 89.9° | 86.8° | 89.7°
9 | C=C(C)C(=O)OCCCCc1cc(-c2ccc(OC(=O)C(=C)C)cc2)ccc1OC(=O)C(=C)C [(9), 4′-(2-Methylacryloyloxy)-3-[4-(2-methylacryloyloxy)butyl]biphenyl-4-yl 2-methylacrylate] | 84.5° | 89.9° | 86.1° | 89.8°
10 | C=CC(=O)Oc1ccc(-c2cc(CCCCOC(=O)C(=C)C)cc(CCCCOC(=O)C(=C)C)c2)cc1 [(10), 4-{4′-Acryloyloxy-5-[4-(2-methylacryloyloxy)butyl]biphenyl-3-yl}butyl 2-methylacrylate] | 83.7° | 89.9° | 86.0° | 89.8°
11 | C=C(C)C(=O)Oc1ccc(-c2ccc(OC(=O)C(=C)C)cc2)cc1 [(A), reference compound] | 81.8° | 89.7° | 84.8° | 89.8°
12 | C=CC(=O)Oc1ccc(-c2ccc(OC(=O)C=C)cc2)cc1 [(B), reference compound] | 86.2° | 89.6° | 87.0° | 89.7°
